Results are given in words; binding and its absence hold for the method and conditions named. Where a sequence is shown, tags or fusion partners need not be part of it.

This test deals with T1, Alb3-Cub: mature Alb3 fused to the C-terminal half of ubiquitin (split-ubiquitin bait) (Arabidopsis thaliana) (UniProt Q8LBP4).
T1 sequence: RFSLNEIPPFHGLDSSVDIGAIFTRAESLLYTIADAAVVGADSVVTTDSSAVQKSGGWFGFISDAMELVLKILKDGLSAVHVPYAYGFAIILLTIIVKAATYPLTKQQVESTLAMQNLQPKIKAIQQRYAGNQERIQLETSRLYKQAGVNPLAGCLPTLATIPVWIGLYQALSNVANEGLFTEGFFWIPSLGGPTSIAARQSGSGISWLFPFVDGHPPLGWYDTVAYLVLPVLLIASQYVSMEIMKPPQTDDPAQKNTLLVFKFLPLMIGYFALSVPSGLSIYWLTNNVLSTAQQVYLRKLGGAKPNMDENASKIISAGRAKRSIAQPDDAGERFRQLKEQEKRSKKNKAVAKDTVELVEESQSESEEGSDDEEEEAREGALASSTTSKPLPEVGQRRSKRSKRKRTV
The test is described as follows: two-hybrid; yeast split-ubiquitin assay; Alb3 constructs fused to Cub, uL4 constructs fused to NubG; growth on selective medium (-LTH).

Regarding “NubG-uL4 of Thermosynechococcus elongatus, full length (aa 1-210)”, the binding result is listed as “no binding”.
